Measured values from PubChem BioAssay AID743255 (National Center for Advancing Translational Sciences (NCATS), 2014).
Among all 390,000 compounds or so, about 910 (0.23%) were called active. The shares of active, inactive and inconclusive entries below differ from those in the screen. The call rests on the fitted dose curve; in most records, active means well fitted inhibition curve with a large enough effect; inconclusive means small, poorly fitted or top-dose-only effect; inactive means no such curve, though single readings can be large or run the other way. A potency beside an inconclusive call is a rough fit, not a confirmed value.

Sequences of proteins named here, by UniProt entry; tags and fusion partners are left off. A change or cut given only in a name is not applied to a line headed by its entry.
UniProt O94782: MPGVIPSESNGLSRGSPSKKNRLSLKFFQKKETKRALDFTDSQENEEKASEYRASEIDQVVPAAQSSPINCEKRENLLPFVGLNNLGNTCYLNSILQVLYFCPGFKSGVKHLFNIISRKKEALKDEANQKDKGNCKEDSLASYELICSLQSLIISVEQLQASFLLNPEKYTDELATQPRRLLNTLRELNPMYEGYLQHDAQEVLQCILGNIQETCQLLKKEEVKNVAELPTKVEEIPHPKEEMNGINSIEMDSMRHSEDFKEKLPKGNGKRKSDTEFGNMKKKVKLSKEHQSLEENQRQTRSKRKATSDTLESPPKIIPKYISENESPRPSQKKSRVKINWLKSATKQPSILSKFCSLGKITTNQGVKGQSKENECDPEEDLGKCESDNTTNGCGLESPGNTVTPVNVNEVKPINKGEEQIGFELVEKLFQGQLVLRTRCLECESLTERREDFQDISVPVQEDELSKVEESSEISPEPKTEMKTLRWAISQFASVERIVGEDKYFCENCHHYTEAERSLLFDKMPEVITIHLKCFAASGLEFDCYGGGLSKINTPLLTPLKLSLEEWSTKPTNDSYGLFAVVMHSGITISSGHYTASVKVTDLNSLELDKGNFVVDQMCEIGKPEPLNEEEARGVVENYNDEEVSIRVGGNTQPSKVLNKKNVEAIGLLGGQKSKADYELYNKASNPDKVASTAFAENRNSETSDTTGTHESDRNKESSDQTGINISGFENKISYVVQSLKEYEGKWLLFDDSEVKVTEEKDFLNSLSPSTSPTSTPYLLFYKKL

Target: Ubiquitin carboxyl-terminal hydrolase 1 (Homo sapiens) (UniProt O94782)
Assay: Inhibitors of USP1/UAF1: Primary Screen; further: nearly all actives have a fitted effect of over 60% in size
Conditions: recombinant USP1/UAF1, Ub-Rhodamine cleavage fluorescence; activity change, negative = inhibition: at 57.1 µM (top of the series)
In short: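 USP1/UAF1 complex at 1 nM was preincubated with compound for 15 min at room temperature, then Ub-Rho substrate (150nM final) was added. Fluorescence (480/540 nm) was read kinetically, 6 reads every 60 seconds.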
On the % scale 0 is the no-effect control and ±100 the full control effect; potency means the concentration at half of the fitted maximal effect.

Activity change, negative = inhibition, inactive:
O=C(N/N=C/c1c(O)n(-c2ccccc2Cl)c(=O)c2ccccc12)C1COc2ccccc2O1 (centres undefined) -24.9%
O=C1CCCCC/C1=N/Nc1ccc(OCc2ccccc2)cc1 -11.2%
COc1ccc(OCc2nnc(SCC(=O)N3CCCc4ccccc43)n2-c2ccc(C)cc2)cc1 -7.03%
Cc1ccc(/C(N)=N/OC(=O)c2ccc(F)cc2)cc1 -13.5%
Cc1ccc2nc3c(c(N)c2c1)CCN3c1ccccc1 -11%
O=C1OC(c2cccs2)=N/C1=C/c1ccc(-c2cccc(C(=O)O)c2)o1 -19.4%
CC(C)CC(=O)Nc1nc2c(s1)CC(C(C)(C)C)CC2 (centres undefined) -15.6%
COc1ccc(C(=O)O/N=C(/c2cccs2)C(C)(C)C)cc1 -19.7%

Potency, inconclusive:
Cn1c(=S)n(/N=C/c2cccs2)c2ccccc21 50.1 µM [inhibitor, partial curve, poor fit]
COc1ccccc1NC(=O)c1sc2nc(C)c(C(=O)Nc3ccc(C)cc3C)c(-c3cccs3)c2c1N 39.8 µM [inhibitor, partial curve, poor fit]
C[C@H](CO)N1C[C@H](C)[C@H](CN(C)Cc2cccc(O)c2)OCc2ccccc2-c2c(n(C)c3ccccc23)C1=O 31.6 µM [inhibitor, partial curve]
COc1cccc(N2CCN(S(=O)(=O)c3cn(C)c(C)n3)CC2)c1 1.12 µM [inhibitor, full curve]
COC(=O)C[C@H]1C[C@H]2c3cc(NC(=O)CC4CC4)ccc3O[C@H]2[C@H](CO)O1 0.447 µM [inhibitor, full curve]
O=C1/C(=C/c2ccncc2)CCC/C1=C\c1ccncc1 28.2 µM [inhibitor, partial curve]
O=C(Nc1ccc2oc(=O)ccc2c1)c1ccc(-c2ccccc2[N+](=O)[O-])o1 25.1 µM [inhibitor, partial curve]
Cc1nn(-c2ccccc2)c(N)c1N=Nc1ccccc1 44.7 µM [inhibitor, partial curve, poor fit]
Cc1cc(-c2ccc(C)c(S(=O)(=O)N3CCC(C)CC3)c2)on1 0.631 µM [inhibitor, full curve]
CC(=O)N1CCc2cc(S(=O)(=O)NC(CC(C)C)C(=O)Nc3ccc(C(C)C)cc3)ccc21 (centres undefined) 5.62 µM [inhibitor, partial curve]
COc1ccc(CNC(=O)c2ccc3nc(CCc4ccccc4)oc3c2)cc1OC 7.08 µM [inhibitor, partial curve]

Taken from the listing (two entries):
Potency, inconclusive:
COc1cccc(N2CCN(S(=O)(=O)c3cn(C)c(C)n3)CC2)c1 1.12 µM [inhibitor, full curve]
COC(=O)C[C@H]1C[C@H]2c3cc(NC(=O)CC4CC4)ccc3O[C@H]2[C@H](CO)O1 0.447 µM [inhibitor, full curve]
